This note sets out measurements from publication PMC8933468.

Sequences of proteins named here, by UniProt entry; tags and fusion partners are left off.
UniProt P38936: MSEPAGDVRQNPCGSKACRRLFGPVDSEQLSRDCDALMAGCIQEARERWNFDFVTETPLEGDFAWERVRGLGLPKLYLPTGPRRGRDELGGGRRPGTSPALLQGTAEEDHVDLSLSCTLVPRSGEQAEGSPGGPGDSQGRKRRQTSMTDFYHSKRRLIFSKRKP

The target of the assay is T1, Flag-CMTM6 (UniProt Q9NX76).
T1 sequence: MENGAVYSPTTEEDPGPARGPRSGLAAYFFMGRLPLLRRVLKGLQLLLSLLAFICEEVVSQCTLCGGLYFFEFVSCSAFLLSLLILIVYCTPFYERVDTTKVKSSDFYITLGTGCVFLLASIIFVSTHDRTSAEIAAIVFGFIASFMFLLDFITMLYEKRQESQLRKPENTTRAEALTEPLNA
Briefly: affinity purification with mass spectrometry; 293T cells transfected with empty vector or Flag-CMTM6; immunoprecipitation with anti-Flag antibody, silver staining, differential bands analysed by LC-MS/MS.

Results are given in words; binding and its absence hold for the method and conditions named. Binding seen in cells or lysates may run through a third protein. These calls come from enrichment with a bait or labelling near it, and not all partners need be listed. Where a sequence is shown, tags or fusion partners need not be part of it.

As to “endogenous p21 (from UniProt P38936 1-164)”, the binding entry is “binds”.
